Experimental data: PubChem BioAssay AID504808 (Drosophila RNAi Screening Center, 2011)
Purpose: 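Chromatin factors that keep E2F targets switched off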 (primary screen). Cell system: Drosophila S2 cells. Reagent: long dsRNA against Drosophila genes. Read-out: 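Dual luciferase plate measurements; E2F-specific signal taken as firefly over Renilla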. Direction: E2F firefly: higher = more E2F reporter activity; Renilla normaliser: higher = more normaliser reporter signal. Active means: 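Called active if the normalised E2F reporter went up by over 50%; the cutoff is arbitrary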.
The deposit covers about 21,000 reagents; shown is a random part of those with a known target gene and a result. Of all reagents, 18 (0.084%) got an active call. 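Raw counts without plate normalisation, one of two replicates; the ratio scores behind the calls were not deposited.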 A number with no mark means an inactive call. Reagents against one gene are numbered here. Names joined by + are all predicted targets of the reagent. Reagent sequences are not shown. The record does not give: the amount of reagent, the time to read-out.

Target gene	reagent	E2F firefly, rep 1	Renilla normaliser, rep 1
mthl6 (GeneID 38839)	1	95308	3955
Pex5 (GeneID 31141)	1	1.32e5	6412
CG1075 (retired record) (GeneID 40742)	1	1.33e5	6824
CG8944 (GeneID 32517)	1	75174	692
CG1116 (GeneID 40622)	1	1.36e5	5803
janB (GeneID 43568)	1	1.11e5	6091
TAF1C-like (GeneID 37450)	1	86300	3745
Sar1 (GeneID 42615)	1	91111	6256
CG6974 (GeneID 41815)	1	1.09e5	6221
alpha-Est9 (GeneID 40897)	1	1.41e5	5755
CG17198 + CG17197	1	1.08e5	5762
CG17198 + CG17197	2	1.15e5	6154
Rpn9 (GeneID 42802)	1	66845	3518
Ugt35B1 (GeneID 41333)	1	70341	3651
CG34045 (GeneID 3885656)	1	1.46e5	4605
Dhfr (GeneID 42003)	1	1.09e5	5703
CG6865 (GeneID 40050)	1	1.54e5	8228
Non1 (GeneID 35963)	1	2399	226
Cubn (GeneID 326235)	1	7571	860
Spn42Dd (GeneID 49808)	1	1.31e5	4383
vnd (GeneID 31003)	1	83253	2109
vnd (GeneID 31003)	2	55733	3258
CG12507 (GeneID 32580)	1	2.20e5	5918
GstZ1 (GeneID 41132)	1	62740	3302
Vlet (GeneID 32116)	1	8609	772
TwdlF (GeneID 40534)	1	76366	3276
CG11095 (GeneID 32348)	1	7654	768
CG10809 (GeneID 39159)	1	1.38e5	6722
CG15657 (GeneID 37408)	1	98864	3917
Deaf1 (GeneID 40164)	1	1.50e5	7361
Clic (GeneID 32349)	1	8168	848
CG2617 (GeneID 35331)	1	97663	3976
CG5162 (GeneID 32709)	1	1.49e5	5817
Ptpmeg (GeneID 38059)	1	84833	3346
Osi6 (GeneID 40760)	1	1.22e5	7071
eEF1gamma (GeneID 44791)	1	76533	6718
eIF4E5 (GeneID 38878)	1	96505	3639
CG12483 (GeneID 50161)	1	1.02e5	4209
Ref2 (GeneID 34667)	1	1.06e5	4558
CG2004 (GeneID 31809)	1	61353	4127
Cpr49Ae (GeneID 36351)	1	2588	217
CG3594 (GeneID 37964)	1	83291	3293
eas (GeneID 32585)	1	1.47e5	6004
Syngr (GeneID 36533)	1	93128	3755
Gem3 (GeneID 39195)	1	1.08e5	4842
PH4alphaEFB (GeneID 43620)	1	1651	844
PH4alphaEFB (GeneID 43620)	2	1.35e5	6203
CG33722 + CG18749	1	76600	3590
CG33722 + CG18749	2	1.41e5	7665
Rh7 (GeneID 39389)	1	68872	3408
SkpC (GeneID 32996)	1	1.43e5	5354
Efhc1.2 (GeneID 37284)	1	79501	3866
Larp7 (GeneID 44900)	1	1.11e5	4785
CG2865 (GeneID 31217)	1	2044	872
CG2865 (GeneID 31217)	2	49604	3883
Synj (GeneID 37517)	1	77085	3730
SmydA-9 (GeneID 31859)	1	1.15e5	4950
CG13502 (GeneID 37518)	1	1.00e5	4336
CG18131 (GeneID 33331)	1	1.37e5	4776
CG14931 (GeneID 34588)	1	1.44e5	4619
Alp13 (GeneID 41236)	1	1.39e5	5812
CG14316 (GeneID 42163)	1	1.49e5	7787
CG9586 (GeneID 34241)	1	1.46e5	5046
I-3 (GeneID 33068)	1	1.33e5	7830
CG11668 (GeneID 41606)	1	1.11e5	6012
HGTX (GeneID 53446)	1	1.43e5	3786
HGTX (GeneID 53446)	2	1.82e5	8793
Jhbp1 (GeneID 40613)	1	1.28e5	5550
tHMG1 (GeneID 42650)	1	1.20e5	6849
Octalpha2R (GeneID 42258)	1	77657	2406
Octalpha2R (GeneID 42258)	2	1.08e5	5857
CG7945 (GeneID 39679)	1	70388	3376
Prat2 (GeneID 38753)	1	74816	3550
CG31612 (GeneID 35427)	1	99051	4521
CG31612 (GeneID 35427)	2	1.03e5	3856
CG32532 (GeneID 32943)	1	1.35e5	6963
CG32532 (GeneID 32943)	2	1.33e5	6419
CG32532 (GeneID 32943)	3	1.33e5	6948
Su(var)3-9 (GeneID 41483)	1	1.59e5	7334
Lapsyn (GeneID 37418)	1	82909	3917
Desat1 (GeneID 117369)	1	1.05e5	6958
TotZ (GeneID 117459)	1	80798	2943
CG5376 (GeneID 42648)	1	1.24e5	6020
CG10560 (GeneID 43065)	1	98922	5382

Part of the list above, reformatted:
CG33722 + CG18749 #1 → E2F firefly, rep 1 = 76600; Renilla normaliser, rep 1 = 3590
CG33722 + CG18749 #2 → E2F firefly, rep 1 = 1.41e5; Renilla normaliser, rep 1 = 7665
Rh7 (GeneID 39389) → E2F firefly, rep 1 = 68872; Renilla normaliser, rep 1 = 3408
SkpC (GeneID 32996) → E2F firefly, rep 1 = 1.43e5; Renilla normaliser, rep 1 = 5354
Efhc1.2 (GeneID 37284) → E2F firefly, rep 1 = 79501; Renilla normaliser, rep 1 = 3866
